Results from PubChem BioAssay AID2551 (National Center for Advancing Translational Sciences (NCATS), 2010).
Hit rate of the full screen: of about 310,000 compounds, about 17,000 (5.5%) were called active. Inconclusive results, whose numbers are uncertain, are shown with a selection of clear calls. The call rests on the fitted dose curve; in most records, active means well fitted inhibition curve with a large enough effect; inconclusive means small, poorly fitted or top-dose-only effect, or effect the other way; inactive means no such curve, though single readings can be large or run the other way. Potencies of inconclusive entries are doubtful fits and often do not repeat.
Further: nearly all actives have a fitted effect of over 60% in size.
On the % scale 0 is the no-effect control and ±100 the full control effect; potency means the concentration at half of the fitted maximal effect.

Chains of the proteins cited; added tags and fusions are not shown. Lines headed by an entry give the natural chain unless they say otherwise; changes in a name come on top.
UniProt P51450: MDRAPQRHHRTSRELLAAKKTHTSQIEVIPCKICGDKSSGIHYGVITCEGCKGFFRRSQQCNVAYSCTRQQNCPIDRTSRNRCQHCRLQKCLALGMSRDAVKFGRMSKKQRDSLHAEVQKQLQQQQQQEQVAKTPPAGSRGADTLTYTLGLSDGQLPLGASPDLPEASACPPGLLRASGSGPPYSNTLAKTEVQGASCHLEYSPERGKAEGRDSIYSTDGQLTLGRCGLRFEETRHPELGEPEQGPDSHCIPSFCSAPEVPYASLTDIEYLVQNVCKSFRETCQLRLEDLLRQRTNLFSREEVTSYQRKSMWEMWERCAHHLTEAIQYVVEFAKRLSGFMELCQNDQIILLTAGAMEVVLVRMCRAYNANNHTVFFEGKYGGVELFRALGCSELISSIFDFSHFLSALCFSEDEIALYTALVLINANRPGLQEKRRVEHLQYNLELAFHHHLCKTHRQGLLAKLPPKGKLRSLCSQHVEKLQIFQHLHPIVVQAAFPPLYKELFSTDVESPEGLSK

The compounds below were run against Nuclear receptor ROR-gamma (Mus musculus) (UniProt P51450) (assay: qHTS for inhibitors of ROR gamma transcriptional activity). Conditions: Drosophila S2 Gal4-RORgamma UAS-luciferase reporter, 20 h; activity change, negative = inhibition: at 53.6 µM (top of the series).
Method in brief: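 Using a luciferase readout, inhibitors were identified by reduced reporter activity in Drosophila cells coexpressing a copper-inducible Gal4–ROR gamma fusion and UAS-driven Photinus luciferase, incubated 20 hr after 700 uM copper sulfate.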
For `COc1cc(SC)ccc1C(=O)NCCOc1ccccc1Cl`, the Potency was inconclusive: 14.1 µM [activator, partial curve].
`CCOC(=O)C1=C(C)N=c2s/c(=C\c3cccn3C)c(=O)n2C1c1cccc(OC)c1OC` (stereo not given) was tested, and the Potency was inconclusive: 35.5 µM [inhibitor, single point].
For `COc1ccc(CNC(=O)Cc2ccc(NC(=O)C3=C(C)OCCS3)cc2)cc1`, the Potency was inconclusive: 17.8 µM [inhibitor, single point].
For `COc1ccc(/C=N/c2sc3c(c2C#N)CCN(Cc2ccccc2)C3)c(O)c1`, the “activity change, negative = inhibition” value was inactive: 21.4%.
With `Cc1ccc(-n2cccc2/C=C2\C(=N)N3N=C(C(C)C)SC3=NC2=O)cc1` the Potency was inconclusive: 15.8 µM [inhibitor, single point].
For `O=C(N/N=C/c1cc(Br)c(Br)o1)c1cc2ccccc2o1`, the Potency was active: 5.01 µM.
`Cc1ccc(-c2cn3cccc(C)c3n2)cc1` was tested, and the Potency was active: 11.2 µM.
For `CCOC(=O)N1CCN(C(=O)COc2ccc(S(=O)(=O)Nc3ccc(OCC)cc3)cc2)CC1`, the Potency was inconclusive: 35.5 µM [activator, single point].
With `O=[N+]([O-])c1ccc(C(O)CSC(=S)N2CCCCC2)cc1` (stereo not given) the Potency was inconclusive: 2.24 µM [activator, full curve].
For `Cc1ccc(C(=O)N/N=C/C2=Cc3ccccc3OC2C)cc1` (stereo not given), the Potency was active: 3.16 µM.
`COc1cc(/C=C/C(=O)N2CCOCC2)ccc1OCc1ccccc1` was tested, and the Potency was inconclusive: 31.6 µM [activator, single point].
`Cc1cccc(NC(=S)NC2CC3CCCC(C2)N3Cc2ccco2)c1` (stereo not given) was tested, and the Potency was active: 11.2 µM.
In the case of `COc1cc(NC(=O)CCc2nc(-c3cccs3)no2)cc(OC)c1OC`, the Potency is reported as inconclusive: 11.2 µM [activator, single point].
With `CC1Cc2ccccc2N1C(=S)NC(=O)c1ccco1` (stereo not given) the Potency was active: 4.47 µM.
With `O=C(c1ccccc1)c1nc[nH]c1C(=O)Nc1ccccc1` the Potency was active: 0.708 µM.
`N#C/C(=C(/O)c1ccccc1F)c1nc2cc(C(F)(F)F)ccc2s1` was tested, and the “activity change, negative = inhibition” value was inactive: 12.3%.
With `O=C(NC(=S)Nc1cc([N+](=O)[O-])ccc1O)c1cccnc1` the Potency was active: 2 µM.
`CC12c3ccccc3C(c3ccccc31)C1C(=O)N(c3ccncc3)C(=O)C12` (stereo not given) was tested, and the Potency was inconclusive: 12.6 µM [activator, single point].
With `COc1ccc(C2C(O)C(c3c[nH]c4ccccc34)=NN2C(=O)CCl)cc1` (stereo not given) the Potency was active: 12.6 µM.
`CNC(=S)N/N=C/c1ccccc1Cl` was tested, and the Potency was active: 3.98 µM.
In the case of `O=[N+]([O-])c1ccc(-c2nnc(CNC3CCCC3)o2)cc1`, the Potency is reported as inconclusive: 28.2 µM [inhibitor, single point].
With `Cc1cc(C)c(S(=O)(=O)N2CCN=C2c2ccccc2)cc1C` the Potency was inconclusive: 0.794 µM [inhibitor, full curve, poor fit].
`COc1ccc(CNc2oc(-c3cccc4ccccc34)nc2P(=O)(OC)OC)cc1` was tested, and the “activity change, negative = inhibition” value was inactive: 24.8%.
In the case of `N[C@@H]1C(O)OC(CO)C(O)C1O` (stereo not given in full), the “activity change, negative = inhibition” value is reported as inactive: -14%.
`CCOC(=O)c1ccc(NC(=O)C2(c3ccccc3)CCOCC2)cc1` was tested, and the Potency was inconclusive: 3.16 µM [inhibitor, single point].
`O=C(COC(=O)c1ccc(-c2nnc(-c3ccccc3)o2)cc1)c1ccccc1` was tested, and the “activity change, negative = inhibition” value was inactive: 0.816%.
In the case of `CN(C(=O)CSc1ncnc2scc(-c3ccccc3)c12)C1CCS(=O)(=O)C1` (stereo not given), the Potency is reported as inconclusive: 35.5 µM [inhibitor, single point].
`CC(C)NC(=O)CN(C(=O)CCC(=O)Nc1nccs1)c1ccc(C(C)C)cc1` was tested, and the “activity change, negative = inhibition” value was inactive: 19.9%.
For `Nc1cccc2nc3ccccc3cc12`, the Potency was active: 14.1 µM.
With `COc1ccccc1C(=O)NCCn1cc(SCC(=O)Nc2cc(C)on2)c2ccccc21` the Potency was inconclusive: 15.8 µM [activator, single point].
In the case of `CCc1nc2ccccc2c(C(=O)OCC(=O)Nc2cccc(S(=O)(=O)N3CCOCC3)c2)c1C`, the Potency is reported as inconclusive: 10 µM [activator, partial curve].
`CCCc1ccc(C(C)NC(=O)c2cnccn2)cc1` (stereo not given) was tested, and the Potency was inconclusive: 11.2 µM [activator, partial curve].
`O=C(CN1C2=NCCN2c2ccccc21)C12CC3CC(CC(C3)C1)C2` was tested, and the Potency was active: 15.8 µM.
In the case of `CCCCC(c1nnnn1CC1CCCO1)N1CCN(c2cc(Cl)ccc2C)CC1` (stereo not given), the “activity change, negative = inhibition” value is reported as inactive: 20.2%.
In the case of `CCOC(=O)c1sc(NC(=S)NC(=O)c2cccc(Cl)c2)c(C(=O)OCC)c1C`, the Potency is reported as inconclusive: 0.708 µM [inhibitor, full curve, poor fit].
In the case of `Cc1cc(C)nc(-n2nc(C)cc2NC(=O)CNCc2ccccc2)n1`, the Potency is reported as active: 5.62 µM.
With `COc1ccc(CSc2nncn2N)cc1Br` the Potency was inconclusive: 0.112 µM [activator, full curve, poor fit].
`Cc1c(C(=O)NCCCc2ccccc2)cccc1[N+](=O)[O-]` was tested, and the Potency was inconclusive: 22.4 µM [activator, single point].
With `CC(NC(=O)Cn1ncc(Cl)c(Cl)c1=O)C12CC3CC(CC(C3)C1)C2` (stereo not given) the Potency was active: 12.6 µM.
`CCCOc1cccc(C2C(C(=O)c3cc4ccccc4o3)=C(O)C(=O)N2c2cc(C)on2)c1` (stereo not given) was tested, and the Potency was inconclusive: 35.5 µM [inhibitor, single point].
For `COc1ccc(C(CC(=O)O)c2ccc3c(c2)OCO3)cc1` (stereo not given), the “activity change, negative = inhibition” value was inactive: -6.59%.
In the case of `O=C(CCCN1C(=O)/C(=C\c2cccs2)SC1=S)NNC(=O)c1cccnc1`, the Potency is reported as active: 5.62 µM.
With `Cc1nc2[nH]c(=S)[nH]c2cc1Br` the Potency was active: 11.2 µM.
For `C=CCNCCOc1ccc(C(C)(C)c2ccccc2)cc1`, the “activity change, negative = inhibition” value was inactive: -15.9%.
With `Cc1ccc(C(=O)Nc2nnc(-c3cccs3)s2)cc1C` the “activity change, negative = inhibition” value was inactive: 1.53%.
For `O=C(CC(c1ccccc1)c1ccccc1O)NCc1ccccc1Cl` (stereo not given), the Potency was inconclusive: 35.5 µM [activator, single point].
With `Cc1cc(C(=O)NC2CC(C)(C)Cc3c2cnn3-c2cccc(F)c2)n(C)n1` (stereo not given) the Potency was inconclusive: 14.1 µM [activator, partial curve].
With `Cn1c(=O)c2c(nc(NCC3CCCO3)n2Cc2ccccc2)n(C)c1=O` (stereo not given) the Potency was inconclusive: 0.708 µM [activator, full curve].
With `COc1cc(C(C)=O)ccc1OCC(O)Cn1nc(C)c(C(C)=O)c1C` (stereo not given) the Potency was inconclusive: 15.8 µM [activator, single point].
With `Cc1noc(C)c1S(=O)(=O)Nc1cccc(C(F)(F)F)c1` the Potency was inconclusive: 31.6 µM [activator, single point].
`O=c1[nH]c(=O)c2[nH]c(=O)[nH]c2[nH]1` was tested, and the “activity change, negative = inhibition” value was inactive: 36.4%.
`CC(=O)N1CCc2cc(N=NC3=C(O)CC(C)(C)CC3=O)ccc21` was tested, and the Potency was inconclusive: 10 µM [inhibitor, partial curve].
With `CNCc1ccccc1Sc1cccc2ccccc12` the Potency was inconclusive: 35.5 µM [activator, single point].
In the case of `Cc1cc(C)cc(OC(=O)CS(=O)c2ccc(C(F)(F)F)cc2[N+](=O)[O-])c1` (stereo not given), the Potency is reported as inconclusive: 35.5 µM [inhibitor, single point].
`COc1ccccc1/C=C/C(=O)NC(=S)Nc1ccc(S(=O)(=O)N(C)c2ccccc2)cc1` was tested, and the Potency was active: 12.6 µM.
`O=C(Oc1cccc2cccnc12)c1ccc(N2C(=O)C3C4CCC(C4)C3C2=O)cc1` (stereo not given) was tested, and the Potency was active: 2.82 µM.
With `COc1ccc(-c2nc(CN3CCN(Cc4cccc(Cl)c4)CC3)c(C)o2)cc1` the Potency was active: 11.2 µM.
For `O=C(c1ccccc1)c1ccc(OCC(O)CNCc2ccc(F)cc2)cc1` (stereo not given), the “activity change, negative = inhibition” value was inactive: -0.774%.
For `CN=C1N[C@H](c2ccccc2)N(c2ccccc2)S1`, the Potency was active: 10 µM.
For `O=C(C1CCCN(S(=O)(=O)c2cccc3nsnc23)C1)N1CCc2ccccc21` (stereo not given), the Potency was inconclusive: 35.5 µM [activator, single point].
With `Cc1nn(C)c(Cl)c1NC(=O)OCc1ccc(F)cc1` the Potency was inconclusive: 20 µM [inhibitor, partial curve, poor fit].
`O=C(CCCCCCCCCCC(=O)NCc1cccnc1)NCc1cccnc1` was tested, and the “activity change, negative = inhibition” value was inactive: -8.27%.
`Cc1ccc(NC(=O)CO/N=C(\N)c2nonc2N)cc1C` was tested, and the “activity change, negative = inhibition” value was inactive: 20.1%.
In the case of `COc1ccc(C(=O)CNc2ccc(C)cc2C)cc1`, the Potency is reported as inconclusive: 11.2 µM [inhibitor, single point].
In the case of `COc1ccc(NS(=O)(=O)c2cc([N+](=O)[O-])ccc2N/N=C\c2c(C)[nH]c3ccccc23)cc1`, the “activity change, negative = inhibition” value is reported as inactive: -7.41%.
In the case of `CC(Sc1nnc2c(n1)[nH]c1ccccc12)C(=O)N(C)C1CCCCC1` (stereo not given), the Potency is reported as inconclusive: 4.47 µM [activator, full curve].
In the case of `CCN(CC)C1=NS(=O)(=O)c2cc([N+](=O)[O-])ccc21`, the Potency is reported as inconclusive: 7.94 µM [inhibitor, partial curve, poor fit].
`O=C(/C=C/c1ccc(Cl)cc1)Nc1ccc(CN2CCOCC2)cc1` was tested, and the “activity change, negative = inhibition” value was inactive: 45%.
`C=CCNC(=O)c1cc(-c2ccncc2)nc2c(C)cc(C)cc12` was tested, and the “activity change, negative = inhibition” value was inactive: -31%.
For `CCOc1ccc(NC(=O)CSc2nnc(-c3ccccc3Cl)n2Cc2ccco2)cc1`, the Potency was inconclusive: 15.8 µM [activator, partial curve].
For `Cc1[nH]n(-c2cccc(Cl)c2)c(=O)c1C=NCc1ccco1`, the Potency was inconclusive: 14.1 µM [inhibitor, single point].
With `COc1ccc(/C=C(/C(=O)Nc2ccccc2C(=O)NC(C)C)c2ccccc2)cc1` the Potency was inconclusive: 10 µM [activator, partial curve].
In the case of `COC(=O)c1cccc(Nc2nc(-c3ccncc3)nc3ccccc23)c1`, the Potency is reported as inconclusive: 17.8 µM [inhibitor, single point].
With `CCn1nc(C)c(/C=N/NC(=O)c2ccoc2C)c1C` the Potency was inconclusive: 35.5 µM [inhibitor, single point].
In the case of `O=C(c1c[nH]c(C(=O)C(Cl)(Cl)Cl)c1)c1c(F)cccc1F`, the Potency is reported as inconclusive: 35.5 µM [inhibitor, single point].
